{"source": "patent US20250108038A1", "about": "(priority 2023, published 2025)", "assay": "Stability in human plasma", "conditions": "2.0 μM, 60 min", "note": "Not every entry of the source has a single result; some have several. The other results are left out here. There may be further records. Values that stand side by side do not match, cause unknown; some may be repeats, others may stem from another dose, organism or construct than stated.", "data": [{"smiles": "Clc1ccc(C2(OCC3OCCO3)c3ccccc3C3=NCCN32)cc1", "note": "(stereo not shown) [Compound I-19]", "values": [{"measurement": "% Remaining", "value": "about 70% and 69.4%"}]}]}
